Experimental data: WO2009095489A2
Substitutions are numbered along the chain they refer to. Results are given in words; binding and its absence hold for the method and conditions named. Some results given as binding are weak or reduced against the parent protein; the word gives no strength.

The chains behind the UniProt entries cited, without tags or fusion partners. Residues count along the entry.
UniProt P08887, residues 20-358: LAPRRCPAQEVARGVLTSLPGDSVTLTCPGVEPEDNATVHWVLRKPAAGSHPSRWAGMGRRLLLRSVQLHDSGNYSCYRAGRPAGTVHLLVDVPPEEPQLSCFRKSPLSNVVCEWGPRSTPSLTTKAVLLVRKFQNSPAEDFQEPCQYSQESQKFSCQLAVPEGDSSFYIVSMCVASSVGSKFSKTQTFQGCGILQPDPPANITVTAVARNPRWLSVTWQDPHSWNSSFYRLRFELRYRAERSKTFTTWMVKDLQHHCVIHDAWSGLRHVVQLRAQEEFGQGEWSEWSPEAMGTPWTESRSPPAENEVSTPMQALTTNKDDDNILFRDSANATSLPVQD

B1: IL6R201 (108-109EG) (VHH)
VHH: EVQLVESGGGLVQPGGSLRLSCAASGFTFSDYDIGWFRQAPGKGREGVSGISSSDGNTYYADSVKGRFTISRDNAKNTLYLQMNSLRPEDTAVYYCAAEPPDSSWYLEGSPEFFKYWGQGTLVTVSS
B2: IL6R201 (108-109QG) (VHH)
VHH: B1 VHH with E108Q
B3: IL6R201 (102-103ES) (VHH)
VHH: B1 VHH with D102E, E108D
B4: IL6R201 (102-103QS) (VHH)
VHH: B1 VHH with D102Q, E108D
B5: IL6R201 (55-56EG) (VHH)
VHH: B1 VHH with D55E, E108D
B6: IL6R201 (55-56QG) (VHH)
VHH: B1 VHH with D55Q, E108D

Molecular target: hIL-6R (on the Biacore chip) (human) (UniProt P08887)
Assay: SPR (Biacore 3000), Nanobody injected over a high density hIL-6R chip

**Q.** For B1, which binding is on record?
**A.** binds

**Q.** Which binding does the source give for B2 here?
**A.** binds

**Q.** With B3 as the binder, how does the binding read?
**A.** binds

**Q.** How did the binding turn out when B4 was run?
**A.** binds

**Q.** How did the binding turn out when B5 was run?
**A.** binds

**Q.** How did the binding turn out when B6 was run?
**A.** binds
